Experimental findings from paper PMC7457527 are described below.

Amino acid sequences for entries named in this document (tags omitted). Residues count along the entry.
UniProt Q13586, residues 23-685: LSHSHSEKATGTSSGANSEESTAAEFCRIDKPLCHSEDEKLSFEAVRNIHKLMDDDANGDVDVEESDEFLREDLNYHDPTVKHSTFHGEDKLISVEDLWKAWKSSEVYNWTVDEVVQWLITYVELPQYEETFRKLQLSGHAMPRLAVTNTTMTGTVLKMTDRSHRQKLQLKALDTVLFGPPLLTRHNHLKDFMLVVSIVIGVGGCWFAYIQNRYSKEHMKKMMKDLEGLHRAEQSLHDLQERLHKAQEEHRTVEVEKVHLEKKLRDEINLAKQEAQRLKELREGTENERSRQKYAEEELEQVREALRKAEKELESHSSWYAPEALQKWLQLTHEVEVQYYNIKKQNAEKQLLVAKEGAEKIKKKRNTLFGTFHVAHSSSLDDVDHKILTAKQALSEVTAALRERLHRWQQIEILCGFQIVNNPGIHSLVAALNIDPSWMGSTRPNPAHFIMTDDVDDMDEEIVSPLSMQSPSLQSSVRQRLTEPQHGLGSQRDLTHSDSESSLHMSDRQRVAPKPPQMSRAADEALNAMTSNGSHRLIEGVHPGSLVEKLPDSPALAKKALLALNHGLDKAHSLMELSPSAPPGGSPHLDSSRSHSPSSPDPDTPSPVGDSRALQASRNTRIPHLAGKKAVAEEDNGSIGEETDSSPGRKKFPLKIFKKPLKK

Experiment [1] deals with T1, C-terminal GFP-tagged TRPP2 (polycystin-2) (human) (UniProt Q13563).
T1 sequence: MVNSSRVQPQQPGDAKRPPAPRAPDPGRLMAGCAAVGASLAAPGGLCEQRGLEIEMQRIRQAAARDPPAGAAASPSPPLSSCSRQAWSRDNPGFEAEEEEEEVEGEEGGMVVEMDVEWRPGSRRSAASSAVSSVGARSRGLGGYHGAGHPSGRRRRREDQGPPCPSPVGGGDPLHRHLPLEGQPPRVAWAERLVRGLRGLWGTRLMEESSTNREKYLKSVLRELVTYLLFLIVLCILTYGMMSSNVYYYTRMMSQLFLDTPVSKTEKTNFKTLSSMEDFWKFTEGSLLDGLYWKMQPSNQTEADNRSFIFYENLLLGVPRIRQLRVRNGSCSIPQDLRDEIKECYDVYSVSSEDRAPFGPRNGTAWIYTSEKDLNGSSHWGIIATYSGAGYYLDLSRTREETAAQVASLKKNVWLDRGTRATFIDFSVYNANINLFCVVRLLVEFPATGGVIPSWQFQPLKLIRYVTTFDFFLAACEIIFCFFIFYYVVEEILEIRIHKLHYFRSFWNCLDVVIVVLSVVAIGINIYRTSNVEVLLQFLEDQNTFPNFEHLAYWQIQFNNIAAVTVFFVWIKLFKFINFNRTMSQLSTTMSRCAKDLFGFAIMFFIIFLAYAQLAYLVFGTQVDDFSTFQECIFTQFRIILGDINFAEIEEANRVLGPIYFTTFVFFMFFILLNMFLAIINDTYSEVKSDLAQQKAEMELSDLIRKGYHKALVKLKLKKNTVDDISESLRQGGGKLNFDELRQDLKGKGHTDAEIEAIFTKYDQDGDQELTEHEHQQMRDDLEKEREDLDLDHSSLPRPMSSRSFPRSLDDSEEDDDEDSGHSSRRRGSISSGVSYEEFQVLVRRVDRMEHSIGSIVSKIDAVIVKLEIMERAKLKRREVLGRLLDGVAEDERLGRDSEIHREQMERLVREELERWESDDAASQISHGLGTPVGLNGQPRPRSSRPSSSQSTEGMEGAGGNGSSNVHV
Kind of experiment: co-IP; HEK293 cells co-transfected with tagged TRPP2 constructs and STIM1; extraction in 1% Nonidet P-40, 150 mmol/L NaCl, 20 mmol/L Tris-HCl pH 8.0; IP with GFP or mCherry antibody overnight at 4 °C, protein A, immunoblot. On the technique in general: Immunoblotting shows a protein as a band on a membrane.

Experiment [2] concerns the target T2, mCherry-TRPP2 (mCherry fused at the N-terminus of TRPP2) (human) (UniProt Q13563).
T2 sequence: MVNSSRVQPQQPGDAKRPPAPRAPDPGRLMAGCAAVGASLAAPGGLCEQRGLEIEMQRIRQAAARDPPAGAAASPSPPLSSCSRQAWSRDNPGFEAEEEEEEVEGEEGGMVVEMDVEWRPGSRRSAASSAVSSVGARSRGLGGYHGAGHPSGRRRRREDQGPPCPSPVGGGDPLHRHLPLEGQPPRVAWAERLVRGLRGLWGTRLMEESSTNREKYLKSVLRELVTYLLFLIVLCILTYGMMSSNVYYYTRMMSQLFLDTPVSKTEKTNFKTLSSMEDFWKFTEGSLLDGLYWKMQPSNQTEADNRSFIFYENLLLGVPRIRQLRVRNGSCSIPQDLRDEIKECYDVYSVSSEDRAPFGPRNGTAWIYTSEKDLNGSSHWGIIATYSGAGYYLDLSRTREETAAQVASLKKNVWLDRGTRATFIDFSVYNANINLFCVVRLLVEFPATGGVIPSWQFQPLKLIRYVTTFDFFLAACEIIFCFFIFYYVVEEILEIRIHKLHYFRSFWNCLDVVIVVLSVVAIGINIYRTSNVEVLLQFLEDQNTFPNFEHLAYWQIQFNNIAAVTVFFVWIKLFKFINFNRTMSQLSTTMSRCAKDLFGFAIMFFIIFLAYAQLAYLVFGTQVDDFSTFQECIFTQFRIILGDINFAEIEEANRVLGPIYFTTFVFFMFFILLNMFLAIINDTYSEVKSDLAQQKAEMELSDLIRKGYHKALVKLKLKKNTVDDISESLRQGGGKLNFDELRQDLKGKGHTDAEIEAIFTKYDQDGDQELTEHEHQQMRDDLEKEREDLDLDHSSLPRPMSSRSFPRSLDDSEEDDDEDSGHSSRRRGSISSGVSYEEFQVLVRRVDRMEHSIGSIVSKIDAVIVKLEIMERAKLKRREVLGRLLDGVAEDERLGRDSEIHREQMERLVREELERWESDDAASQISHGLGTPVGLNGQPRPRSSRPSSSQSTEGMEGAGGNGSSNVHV
Kind of experiment: FRET or BRET; sensitized emission FRET, GFP donor and mCherry acceptor, co-transfected HEK293 cells, Leica confocal; GFP-mCherry fusion as positive and separate GFP and mCherry as negative control. On the technique in general: BRET reads energy transfer from a luciferase to a nearby fluorophore.

Experiment [3] concerns the target N-terminal mCherry-tagged STIM1 (stromal interaction molecule 1) (human) (UniProt Q13586). As to the kind of experiment: co-IP; HEK293 cells co-transfected with tagged TRPP2 constructs and STIM1; extraction in 1% Nonidet P-40, 150 mmol/L NaCl, 20 mmol/L Tris-HCl pH 8.0; IP with GFP or mCherry antibody overnight at 4 °C, protein A, immunoblot.

These are yes or no findings as the source states them, for the method shown. In cells and extracts the contact can be indirect. Some binding calls cover weakened binding; strength is not graded here. Tags and fused reporters may be left off the sequences shown.

In the case of “N-terminal mCherry-tagged STIM1 (stromal interaction molecule 1) (from UniProt Q13586 23-685)”, the binding entry in experiment [1] is given as “binds”.

As for STIM1-GFP (from UniProt Q13586 23-685), in experiment [2], the binding entry is on record as “binds”.

B1: C-terminal GFP-tagged TRPP2 (polycystin-2) (protein, UniProt Q13563 1-968)
chain: MVNSSRVQPQQPGDAKRPPAPRAPDPGRLMAGCAAVGASLAAPGGLCEQRGLEIEMQRIRQAAARDPPAGAAASPSPPLSSCSRQAWSRDNPGFEAEEEEEEVEGEEGGMVVEMDVEWRPGSRRSAASSAVSSVGARSRGLGGYHGAGHPSGRRRRREDQGPPCPSPVGGGDPLHRHLPLEGQPPRVAWAERLVRGLRGLWGTRLMEESSTNREKYLKSVLRELVTYLLFLIVLCILTYGMMSSNVYYYTRMMSQLFLDTPVSKTEKTNFKTLSSMEDFWKFTEGSLLDGLYWKMQPSNQTEADNRSFIFYENLLLGVPRIRQLRVRNGSCSIPQDLRDEIKECYDVYSVSSEDRAPFGPRNGTAWIYTSEKDLNGSSHWGIIATYSGAGYYLDLSRTREETAAQVASLKKNVWLDRGTRATFIDFSVYNANINLFCVVRLLVEFPATGGVIPSWQFQPLKLIRYVTTFDFFLAACEIIFCFFIFYYVVEEILEIRIHKLHYFRSFWNCLDVVIVVLSVVAIGINIYRTSNVEVLLQFLEDQNTFPNFEHLAYWQIQFNNIAAVTVFFVWIKLFKFINFNRTMSQLSTTMSRCAKDLFGFAIMFFIIFLAYAQLAYLVFGTQVDDFSTFQECIFTQFRIILGDINFAEIEEANRVLGPIYFTTFVFFMFFILLNMFLAIINDTYSEVKSDLAQQKAEMELSDLIRKGYHKALVKLKLKKNTVDDISESLRQGGGKLNFDELRQDLKGKGHTDAEIEAIFTKYDQDGDQELTEHEHQQMRDDLEKEREDLDLDHSSLPRPMSSRSFPRSLDDSEEDDDEDSGHSSRRRGSISSGVSYEEFQVLVRRVDRMEHSIGSIVSKIDAVIVKLEIMERAKLKRREVLGRLLDGVAEDERLGRDSEIHREQMERLVREELERWESDDAASQISHGLGTPVGLNGQPRPRSSRPSSSQSTEGMEGAGGNGSSNVHV
Take B1: the binding result in experiment [3] is “binds”.
